Laboratory results from PubChem BioAssay AID2685 (National Center for Advancing Translational Sciences (NCATS), 2010).
The other results are listed elsewhere or left out. These are further read-outs of the screen, such as a control signal, another cell line or another target. No call is given for them. Most of these compounds were active or inconclusive in the main read-out, so they are no random draw. Words in brackets tell the shape of the fitted curve; partial curves, single points and poor fits give uncertain potencies.

Experiment: qHTS Assay for Lipid Storage Modulators in Drosophila S3 Cells;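 as to cell number change: cells counted by Cell Tracker Red CMTPX staining in the red channel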
Conditions: BODIPY lipid droplet fluorescence, 18-24 h; for cell number change: measured here: cell count max response, cells fed with added oleic acid
In short: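 Drosophila S3 cells got compounds at several concentrations plus oleic acid (400 uM solution). Laser-scanning cytometry with 488 nm excitation read lipid droplets at 500-530 nm and cells at 575-640 nm. Percent activity was relative to 20 uM Triacsin C.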

[1] = measured here: cell number channel AC50, cells fed with added oleic acid
[2] = measured here: lipid fluorescence (Fed channel) AC50, cells fed with added oleic acid

Row | SMILES | cell number change | AC50 [1] | AC50 [2]
1 | COc1ccc(N(CC(=O)Nc2cc(Cl)ccc2OC)S(=O)(=O)c2c(C)noc2C)cc1 | -7.44% | 1.3 µM [rising, partial curve] | 2.59 µM [rising, partial curve]
2 | Cc1noc2ncnc(N3CCCC3)c12 | -3.34% | – | –
3 | O=C(c1cc(-c2ccccc2Cl)nc2ccccc12)N1CCOCC1 | 7.11% | – | 0.13 µM [rising, partial curve, poor fit]
4 | CCC1(c2ccc(F)cc2)NC(=O)N(CC(=O)Nc2cccc(S(=O)(=O)N3CCCCC3)c2)C1=O (stereo not drawn) | -9% | – | 18.4 µM [falling, partial curve, poor fit]
5 | CCCN1CCN(S(=O)(=O)c2c(C)[nH]c(C)c2C(=O)N2CCCCC2)CC1 | -1.81% | – | 29.1 µM [rising, single point]
6 | O=C(c1c(F)cccc1F)N1CCCc2ccccc21 | -11.7% | – | 10.3 µM [rising, single point]
7 | CC(Sc1nnc(Cc2cccs2)n1C1CC1)C(=O)NC1CCS(=O)(=O)C1 (stereo not drawn) | -25% | 5.17 µM [rising, partial curve] | –
8 | Cc1cc(C)cc(-n2ncc3c2CCCC3NC(=O)c2cc(C)n(C)n2)c1 (stereo not drawn) | -7.03% | – | 0.184 µM [falling, full curve]
9 | Cc1ccccc1NC(=O)CCC(=O)OCC(=O)c1ccc(-c2ccccc2)cc1 | -18.8% | – | 10.3 µM [falling, partial curve]
10 | COC(=O)c1cc2n(n1)CCN(Cc1ccccc1Cl)C2=O | -0.938% | 0.00461 µM [falling, full curve, poor fit] | 16.4 µM [falling, single point]
11 | Cc1cc(C(=O)N/N=C/c2ccc(-c3cccc([N+](=O)[O-])c3)o2)n[nH]1 | 18.5% | – | 29.1 µM [falling, single point]
12 | O=C(O)c1ccc(Nc2ncnc3scc(-c4ccccc4)c23)cc1 | 0.241% | – | 0.00461 µM [falling, full curve, poor fit]
13 | COc1ccc(O)c(C(=O)c2cnc3c(c2)c(C)nn3C)c1 | 25.4% | – | 29.1 µM [rising, partial curve]
14 | CC1CC(C)(C)NC(=S)N1CCC(=O)NCc1ccc(F)cc1 (stereo not drawn) | -63.6% | 5.17 µM [falling, partial curve, poor fit] | –
15 | NS(=O)(=O)c1ccc(CNc2nc(-c3cccnc3)nc3ccccc23)cc1 | -18.4% | – | 5.62 µM [falling, single point]
16 | Cc1ccc(NC(=O)CSc2nccn2Cc2ccco2)c(C)c1 | 26.4% | – | 0.562 µM [rising, single point]
17 | CCOCCc1c(O)nc(SC)[nH]c1=O | -52.6% | 29.1 µM [falling, single point] | 29.1 µM [falling, single point]
18 | Clc1cccc(Cl)c1C1Nc2cccc3cccc(c23)N1 | -59.3% | 1.46 µM [falling, full curve] | –
19 | Cc1cccc(-n2nnc(C(=O)NCc3ccco3)c2N)c1 | 19.3% | – | 29.1 µM [rising, single point]
20 | CCOC(=O)c1[nH]cnc1C(=O)N1CCC(C)CC1 | 1.47% | – | 0.00461 µM [rising, full curve, poor fit]

Taken from above:
AC50 [2] with COc1ccc(N(CC(=O)Nc2cc(Cl)ccc2OC)S(=O)(=O)c2c(C)noc2C)cc1 reads 2.59 µM [rising, partial curve]
AC50 [2] with NS(=O)(=O)c1ccc(CNc2nc(-c3cccnc3)nc3ccccc23)cc1 reads 5.62 µM [falling, single point]
cell number change with CC1CC(C)(C)NC(=S)N1CCC(=O)NCc1ccc(F)cc1 (stereo not drawn) reads -63.6%
cell number change with O=C(O)c1ccc(Nc2ncnc3scc(-c4ccccc4)c23)cc1 reads 0.241%

The list goes on.

Row | SMILES | cell number change | AC50 [1] | AC50 [2]
21 | CC1CCC2(CC1)NC(=O)N(NC(=O)CCc1c[nH]c3ccccc13)C2=O (stereo not drawn) | – | – | 29.1 µM [falling, single point]
22 | CCCCOC(=O)C1=C(N)N2C(=O)C(C)SC2=C(C(=O)OCC)C1c1ccc(O)c(OC)c1 (stereo not drawn) | 4.38% | – | 0.731 µM [rising, full curve, poor fit]
23 | COc1ccc(-c2sc(C(=O)c3ccc(Cl)cc3Cl)cc2CC(=O)O)cc1 | 73.9% | 29.1 µM [rising, single point] | 29.1 µM [rising, single point]
24 | COc1ccc(N(CC(=O)N2CCN(C)CC2)S(C)(=O)=O)cc1OC | -56.1% | 0.82 µM [falling, full curve] | 0.517 µM [falling, full curve]
25 | CCCCn1c(N)c(N(CCC(C)C)C(=O)c2cc(-c3ccco3)nc3ccccc23)c(=O)[nH]c1=O | – | – | 0.58 µM [falling, full curve]
26 | Cc1ccc(-c2nnn(CC(=O)N(CCCO)C(C(=O)NC3CCCC3)c3ccc(F)cc3)n2)o1 (stereo not drawn) | 1.32% | – | 0.562 µM [falling, full curve, poor fit]
27 | CN(C)C(=O)CSc1nnc(-c2ccncc2)n1Cc1ccco1 | – | – | 6.51 µM [falling, single point]
28 | O=C(O)c1ccccc1SC1CC(=O)N(c2ccc3c(c2)OCO3)C1=O (stereo not drawn) | 67.3% | 18.4 µM [rising, single point] | –
29 | CCCCCCOC(=O)c1ccc(OC(=O)c2cccnc2)cc1 | 20% | – | 4.11 µM [falling, partial curve]
30 | O=[N+]([O-])c1c(NCCCO)cc(Sc2nc3ccccc3s2)c2nonc12 | -27.6% | – | –
31 | S=C(Nc1ccc2nc(-c3ccccn3)c(-c3ccccn3)nc2c1)N1CCCCCC1 | 12.2% | – | –
32 | CC(C)C[C@@]12C(=O)N(c3cccc(Cl)c3)C(=O)N1[C@H](c1ccc(Br)cc1)[C@@H]1C(=O)N(C(C)(C)C)C(=O)[C@@H]12 | 32.1% | 14.6 µM [rising, single point] | –
33 | N#CCNC(=O)C1CC(=O)N(CCc2ccc(F)cc2)C1 (stereo not drawn) | 6.45% | – | –
34 | N#CC1C=Cc2ccccc2N1C(=O)c1ccccc1 (stereo not drawn) | 42.8% | – | 13 µM [rising, partial curve]
35 | O=C(c1cc(C(=O)c2ccco2)cc(C(=O)c2ccco2)c1)c1ccco1 | 17.4% | 0.291 µM [rising, full curve, poor fit] | –
36 | COc1cc2c(=O)n(CC3CCCO3)c(=O)n(CC(=O)Nc3ccc(F)cc3F)c2cc1OC (stereo not drawn) | 53.9% | 16.4 µM [rising, partial curve] | 9.2 µM [rising, partial curve, poor fit]
37 | CCN(CC)CCN(C(=O)c1ccc2c(c1)CCCC2)c1nc2c(C)cccc2s1 | 38.2% | 12.6 µM [rising, partial curve, poor fit] | 10 µM [rising, partial curve, poor fit]
38 | O=C(NCC(=O)N1CCN(C(=O)c2ccco2)CC1)c1cccc(Cl)c1 | 2.07% | – | 13 µM [rising, partial curve, poor fit]
39 | CCOCC(O)CS(=O)(=O)c1ccccn1 (stereo not drawn) | -13.9% | – | 1.84 µM [falling, full curve]
40 | O=C(Nc1nccs1)C1CC(=O)N(c2ccccc2Cl)C1 (stereo not drawn) | 52% | 6.51 µM [falling, single point] | 6.51 µM [falling, single point]

Row | SMILES | cell number change | AC50 [1] | AC50 [2]
41 | CC(=O)Nc1ccc(NC(=O)c2cccc(S(=O)(=O)N(C)C3CCCCC3)c2)cc1 | -6.16% | – | 0.146 µM [falling, partial curve, poor fit]
42 | Cc1ccc(-c2cc(C(=O)NC3CCCCC3)no2)cc1 | 13.2% | – | –
43 | Cc1ccccc1C(=O)NC(CC(C)C)C(=O)N1CCN(c2ccccc2)CC1 (stereo not drawn) | -8.11% | – | 0.13 µM [falling, full curve, poor fit]
44 | CCOc1ccc2oc(C(=O)N(C)CC(=O)Nc3ccc(OCC)c(OCC)c3)c(C)c2c1 | – | – | 0.259 µM [rising, full curve, poor fit]
45 | O=C(NCc1ccc2c(c1)OCO2)C1CC(=O)N(CCc2ccccc2)C1 (stereo not drawn) | 7.87% | – | –
46 | C[C@@H]1NS(=O)(=O)[C@H]2C[C@@H]3C=C[C@]2(O3)[C@H]1OC(=O)c1ccccc1Br | 11.5% | – | 0.82 µM [rising, full curve, poor fit]
47 | CC(=O)Nc1ccc(-c2nc3ccccc3c(=O)o2)cc1 | 21.6% | 6.51 µM [rising, single point] | –
48 | CC(C(=O)c1c[nH]c(C(N)=O)c1)c1ncc(C(F)(F)F)cc1Cl (stereo not drawn) | 6.32% | – | 0.00461 µM [falling, full curve]
49 | Cc1c(Cc2ccccc2)c(=O)oc2c(O)c(O)ccc12 | -32.5% | 1.03 µM [falling, full curve, poor fit] | 3.26 µM [falling, full curve]
50 | COc1cc(/C=N\n2cnnc2)ccc1OCC(=O)Nc1ccc(C)cc1 | -34.5% | – | –
51 | CCO/C=N/c1c(C#N)c2c(c(=S)n1C)COC(C)(C)C2 | -0.676% | – | 11.6 µM [falling, partial curve]
52 | CC(C)(C)NC(=O)NC(=O)COC(=O)CNS(=O)(=O)c1ccc(Br)cc1Cl | 0.88% | – | 16.4 µM [falling, partial curve]
53 | CCOc1ccc(N(CC(=O)N/N=C/c2ccccn2)S(=O)(=O)c2ccc(Cl)cc2)cc1 | -25.2% | – | 29.1 µM [falling, single point]
54 | Cc1cc(NC(=O)CCN2CCC(C(N)=O)CC2)ccc1Br | 35.5% | – | –
55 | Cc1nn(C)c(C)c1CN(C)C(=O)c1nn2c(c1Br)NC(c1cccs1)CC2C(F)(F)F (stereo not drawn) | -0.431% | – | 3.66 µM [rising, full curve]
56 | O=C(Nc1cc(C(F)(F)F)ccc1N1CCOCC1)c1ccco1 | – | – | 4.61 µM [rising, single point]
57 | Cc1oc2c(cc(NS(=O)(=O)c3cccs3)c3ccccc32)c1C(=O)OC(C)C | -27.3% | – | 23.1 µM [falling, partial curve, poor fit]
58 | CCOC(=O)C(=Cc1ccc(Br)cc1)C(=O)OCC | -62.3% | 18.4 µM [falling, single point] | 20.6 µM [falling, single point]
